About 5,400 (1.8%) of roughly 300,000 compounds were called active. The inconclusive results got no clear call from the source; some entries with a clear call stand among them for comparison. The call rests on the fitted dose curve; tested in HEK293 cells. Where the call is inconclusive, the potency comes from a doubtful curve fit.
Assay: qHTS for inhibitors of binding or entry into cells for Marburg Virus
Settings: Marburg virus pseudotyped entry inhibition, cell reporter; activity change, negative = inhibition: at 37.8 µM (top of the series) unless noted
On the % scale 0 is the no-effect control and ±100 the full control effect; potency means the concentration at half of the fitted maximal effect.

Row | SMILES | Potency | activity change, negative = inhibition
1 | O=C(CC1C(=O)NCCN1C(=O)Nc1ccccc1)Nc1ccc2c(c1)OCCO2 (configuration not stated) | inconclusive: 0.0291 µM [activator, full curve, poor fit] | –
2 | CC(C)CC(=O)NC(NC(=S)Nc1ccccc1)C(Cl)(Cl)Cl (configuration not stated) | inconclusive: 7.94 µM [inhibitor, partial curve, poor fit] | –
3 | O=C(CP(=O)(c1ccccc1)c1ccccc1)Nc1cccc(CP(=O)(c2ccccc2)c2ccccc2)c1 | inconclusive: 6.31 µM [inhibitor, full curve, poor fit] | –
4 | COc1ccc2c(Sc3ccc(Cl)cc3)c(C(=O)NCCCN3CCCCC3)[nH]c2c1 | inconclusive: 1.41 µM [inhibitor, partial curve, poor fit] | –
5 | c1ccc2c(c1)N[C@H](c1ccncc1)n1c-2nc2ccccc21 | inconclusive: 8.91 µM [inhibitor, partial curve, poor fit] | –
6 | CC#CCOC(=O)c1c(C)nc2sc3c(c2c1N)CCC(O)C3 (configuration not stated) | inactive | –
7 | O=C(CSc1nccn(-c2ccc3c(c2)OCCO3)c1=O)Nc1ccccc1 | – | inactive: -5.3%
8 | CC(C)(C)NC(=O)CN1CCC(NC(=O)C23CC4CC(CC(C4)C2)C3)CC1 | inconclusive: 3.16 µM [inhibitor, single point] | –
9 | O=C(NCCn1cc(SCc2ccc(F)cc2)c2ccccc21)c1ccccc1F | inconclusive: 1.16 µM [inhibitor, partial curve, poor fit] | –
10 | Cc1nc(C)c(C(=O)OCC(=O)Nc2ccccc2SCC#N)s1 | – | inactive: 9.25%
11 | Cc1nc2c(nnn2Cc2c(Cl)cccc2Cl)c(=O)[nH]1 | inconclusive: 1.58 µM [activator, partial curve] | –
12 | COc1ccc([C@H]2C[C@H](n3cc(COC(=O)c4ccccc4)nn3)[C@@H](O)CN2Cc2cccs2)cc1 | inconclusive: 15.8 µM [inhibitor, partial curve, poor fit] | –
13 | CCOc1cccc(C(=O)NC(=S)Nc2ccc(N3CCN(CC)CC3)cc2)c1 | inconclusive: 10 µM [inhibitor, partial curve, poor fit] | –
14 | O=S(=O)(CCN1C=CC(C(F)(F)F)=NCC1)c1ccc(F)cc1 | inconclusive: 3.55 µM [inhibitor, single point] | –
15 | O=c1[nH]c(-c2ccccn2)nc2sc(-c3ccccc3)cc12 | inconclusive: 1.58 µM [inhibitor, full curve, poor fit] | –
16 | COc1cc(N)ccc1NC(=O)c1cccs1 | inconclusive: 25.1 µM [inhibitor, single point] | –
17 | CCCCn1c(=O)c(C(=O)Nc2ncccc2C)c(O)c2ccccc21 | inconclusive: 1 µM [inhibitor, partial curve, poor fit] | –
18 | CCOc1ccc(S(=O)(=O)N2CCN(c3ccccc3)CC2)cc1C(N)=O | inconclusive: 6.31 µM [inhibitor, single point] | –
19 | CC1CCCC(C)N1C(=O)CSc1ccc(-c2ccc3c(c2)OCCO3)nn1 (configuration not stated) | inconclusive: 35.5 µM [inhibitor, single point] | –
20 | COc1ccc(NS(=O)(=O)c2c(C)cc(C)cc2C)cn1 | – | inactive: -14.5% [at 46.1 µM]
21 | O=C(NCCS(=O)(=O)NCc1ccccc1Cl)c1ccccc1 | inconclusive: 3.98 µM [inhibitor, full curve, poor fit] | –

Row | SMILES | Potency | activity change, negative = inhibition
22 | Cc1cccc(NC(=O)C2CCCN2C(=O)Oc2ccccc2)c1 (configuration not stated) | inconclusive: 29.1 µM [inhibitor, single point] | –
23 | CCOC(=O)C1=C(CN2CCC(C(=O)OCC)CC2)NC(=O)NC1c1ccc(Cl)cc1 (configuration not stated) | – | inactive: -2.58% [at 46.1 µM]
24 | Cc1ccc(-c2nn3c(C)nnc3c3ccccc23)cc1S(=O)(=O)NC(C)c1ccccc1 (configuration not stated) | inconclusive: 35.5 µM [inhibitor, single point] | –
25 | CC1(C)CNC(=O)c2sc(N3CCCCC3)nc2C1 | – | inactive: 28.8%
26 | COc1cc(/C=N/NC(=O)CN2CCCCC2)ccc1OCc1ccc(Br)cc1 | inconclusive: 12.6 µM [inhibitor, single point] | –
27 | Cc1ccc2c(=O)cc(C(=O)Nc3nnc(C)s3)oc2c1 | inconclusive: 35.5 µM [activator, single point] | –
28 | CN1C(C(=O)Nc2ccc(F)cc2F)=CC(c2cccs2)=NS1(=O)=O | – | inactive: 27.5% [at 46.1 µM]
29 | CCn1nc(-c2ccccc2)c(-c2ccccc2)c(C(=O)OCCOC)c1=O | – | inactive: 7.53% [at 46.1 µM]
30 | COc1ccccc1NS(=O)(=O)c1cc(C(=O)NCC(c2ccc(F)cc2)N2CCOCC2)ccc1C (configuration not stated) | – | inactive: -1.34%
31 | COc1ccc2c(c1OC)C(C1c3c(cc4c(c3OC)OCO4)CCN1C)OC2=O (configuration not stated) | inconclusive: 7.08 µM [inhibitor, partial curve, poor fit] | –
32 | CC1=CC(C)(C)N(C(=O)CSc2nnc(N)s2)c2cc(C)c(C)cc21 | – | inactive: -29.4%
33 | CC(=O)c1cccc(OCc2cc(C(=O)N(C)Cc3cnccn3)no2)c1 | inconclusive: 35.5 µM [activator, single point] | –
34 | COc1ccc(-c2cc(C(=O)Nc3c(C)nn(Cc4ccc(F)cc4)c3C)no2)cc1OC | – | inactive: -0.746% [at 46.1 µM]
35 | O=C(N/N=C/c1cccnc1)c1ccc(NC(=O)C(c2ccccc2)c2ccccc2)cc1 | inconclusive: 35.5 µM [activator, single point] | –
36 | Cc1ccc(NC(=S)NNc2ncc(C(F)(F)F)cc2Cl)c(C)c1 | inconclusive: 11.2 µM [inhibitor, single point] | –
37 | CCOCCN1CCN(c2c(CC)c(C)nc3cc(-c4cc(OC)cc(OC)c4)nn23)CC1 | inconclusive: 35.5 µM [inhibitor, partial curve, poor fit] | –
38 | COC(=O)[C@H](Cc1ccccc1)NC(=O)NCc1ccccc1OC | inconclusive: 32.6 µM [inhibitor, single point] | –
39 | CCOC(=O)c1ccccc1NC(=O)CCc1c(C)nc2ncnn2c1C | – | inactive: 7.92% [at 46.1 µM]
40 | COc1cc2nc(N(CCCN(C)C)C(=O)c3ccc(S(=O)(=O)N4CCc5ccccc54)cc3)sc2cc1OC | inconclusive: 22.4 µM [inhibitor, single point] | –
41 | CCOC(=O)c1cc(C(=O)NN)c(C)nc1C | – | inactive: -0.351%
42 | O=C1CSC(=S)N1c1cccc(O)c1 | inconclusive: 35.5 µM [inhibitor, single point] | –

Three compounds out of the list, arranged by molecular weight, high to low:
Row | SMILES | Potency | activity change, negative = inhibition
9 | O=C(NCCn1cc(SCc2ccc(F)cc2)c2ccccc21)c1ccccc1F | inconclusive: 1.16 µM [inhibitor, partial curve, poor fit] | –
8 | CC(C)(C)NC(=O)CN1CCC(NC(=O)C23CC4CC(CC(C4)C2)C3)CC1 | inconclusive: 3.16 µM [inhibitor, single point] | –
11 | Cc1nc2c(nnn2Cc2c(Cl)cccc2Cl)c(=O)[nH]1 | inconclusive: 1.58 µM [activator, partial curve] | –
